Patent US4443536A, “Nondiffusible photographic couplers and photographic elements and processes employing same” (Eastman Kodak Company, priority 1982, dated 1984)

Assay: Dye-forming efficiency and reactivity of coupler: slope of dye density vs developed silver without and with competing coupler citrazinic acid
Details: for Yc/Yo / Yo (slope dye density vs developed silver; efficiency of dye formation): developer D-2; for Yc (slope dye density vs developed silver; reactivity of coupler): developer D-2 + 1.5 g/L citrazinic acid (competing coupler); for Yo (slope dye density vs developed silver; efficiency of dye formation): absence of competing coupler
Protocol: For each of the couplers identified below, photographic elements were prepared as described above in connection with Examples 1-14. Four samples from each element were exposed as described above. One pair of the exposed elements was developed in developer D-2, described above, and the other pair was developed in this developer to which had been added 1.5 g/L of the soluble competing coupler citrazinic acid. The remaining processing for one element from each pair was stopping, bleaching, fixing and washing while for the second element from each pair the bleaching step was omitted so that the developed silver remained in the element. For those elements in which the silver remained, the amount of developed silver, in g/m^2, was determined by x-ray fluorescence analysis and plotted against exposure. For those elements from which the developed silver had been removed, dye density vs exposure curves were generated. From the plots for pairs of elements developed with the same developer composition there was plotted, for each exposure step, dye density vs developed silver. The slope of the line for the elements developed in the absence of a competing coupler (Yo in Table III, below) is a measure of the efficiency with which the coupler forms dye; the greater the slope the more efficient the coupler. The slope of the line for the elements developed in the presence of the competing coupler (Yc in Table III, below) is a measure of the reactivity of the coupler, the greater the slope, the more reactive the coupler.

Row | Structure (SMILES) | Yc/Yo (coupler solvent CS-4) | Yc (slope dye density vs developed silver; reactivity of coupler) (coupler solvent CS-4) | Yo (slope dye density vs developed silver; efficiency of dye formation) (coupler solvent CS-4) | Yc/Yo (coupler solvent CS-2) | Yc (slope dye density vs developed silver; reactivity of coupler) (coupler solvent CS-2) | Yo (slope dye density vs developed silver; efficiency of dye formation) (coupler solvent CS-2)
1 | CCCCCCCCCCC(Oc1ccc(C(C)(C)c2ccc(O)cc2)cc1)C(=O)Nc1ccc(CCCc2n[nH]c3cc(C)nn23)cc1 (stereo not drawn) [CC-10, reference compound] | 0.130 | 0.21 | 1.62 |  |  | 
2 | CCCCCCCCCCC(Oc1ccc(S(=O)(=O)c2ccc(O)cc2)cc1)C(=O)Nc1ccc(Cl)c(NC2=NN(c3c(Cl)cc(Cl)cc3Cl)C(=O)C2)c1 (stereo not drawn) [Coupler M-28] |  |  |  | 0.738 | 4.65 | 6.30
3 | CCCCCCCCCCC(Oc1ccc(S(=O)(=O)c2ccc(O)cc2)cc1)C(=O)Nc1ccc(CCCc2n[nH]c3cc(C)nn23)cc1 (stereo not drawn) [Coupler M-8] | 0.312 | 1.73 | 5.55 |  |  | 
4 | CCC(Oc1ccc(C(C)(C)CC)cc1C(C)(C)CC)C(=O)Nc1ccc(Cl)c(NC2=NN(c3c(Cl)cc(Cl)cc3Cl)C(=O)C2)c1 (stereo not drawn) [CC-11, reference compound] |  |  |  | 0.337 | 1.50 | 4.50
